Reference: PubChem BioAssay AID504834 (National Center for Advancing Translational Sciences (NCATS), 2011)
The campaign covered roughly 320,000 compounds. About 22,000 (6.9%) were called active. Inconclusive means that the source gave no clear call. Such entries were picked first, then a sample of the others. Calls come from the whole dose curve; as a rule, active = well fitted inhibition curve with a large enough effect; inconclusive = small, poorly fitted or top-dose-only effect, or another doubt; inactive = no such curve, though single readings can be large or run the other way. A potency beside an inconclusive call is a rough fit, not a confirmed value.

experiment: Primary qHTS for delayed death inhibitors of the malarial parasite plastid, 96 hour incubation; details: P. falciparum luciferase reporter growth; series mostly up to 28.7 µM
How it was run: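 Compounds incubated with erythrocytes infected by luciferase-expressing P. falciparum (2% hematocrit, 0.05% parasitemia final) for 96 hours, 37 C in 5% CO2. Growth inhibition scored as decreased luciferase luminescence.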
% is set by controls: 0 for no effect and ±100 for the full control effect; potency is the fitted concentration of half-maximal effect.

SMILES | Potency | activity change, negative = inhibition
CCOC(=O)c1c(NC(C)=O)sc(C(=O)NC2CCCC2)c1C | inconclusive: 18.5 µM [inhibitor, single point] | –
CCSC1=C(C#N)C(c2cccc(O)c2)CC(=O)N1 (stereo not given) | inactive | –
OCCC1CN(Cc2cccn2-c2nccs2)CCN1CCc1ccccc1 (stereo not given) | inconclusive: 5.86 µM [inhibitor, partial curve, poor fit] | –
C=CCNc1nc(Nc2ccc([N+](=O)[O-])cc2)nc(N2CCCC2)n1 | inconclusive: 18.5 µM [inhibitor, single point] | –
O=C1CSc2ccc(C(=O)Nc3cccc(S(=O)(=O)Nc4ccc(Br)cc4)c3)cc2N1 | inactive | –
CCOc1ccc(CCNC(=O)COC(=O)c2c(OC)cccc2OC)cc1OCC | inconclusive: 13.1 µM [inhibitor, single point] | –
CCC(=O)Nc1ccc(N2CCN(Cc3ccccc3)CC2)cc1 | inactive | –
CCc1ccc(NC(=O)CSc2nc3nc(C)cc(C)n3n2)cc1 | inconclusive: 18.5 µM [inhibitor, single point] | –
Cc1ccc(S(=O)(=O)N2CCN(C(=O)Cc3sc(C)nc3-c3ccc(F)cc3)CC2)c(C)c1 | inconclusive: 13.1 µM [inhibitor, partial curve] | –
CCC(=O)N1c2ccccc2NC2=C(C(=O)CCC2)C1c1ccc(N(C)C)cc1 (stereo not given) | inconclusive: 9.28 µM [inhibitor, single point] | –
Cc1nc2ccc(NC(=O)c3ccc([N+](=O)[O-])cc3)cc2[nH]1 | inactive | –
CCCN(CCC)C(=O)c1ccc2c(c1)S(=O)(=O)c1ccccc1C2=O | inconclusive: 11.7 µM [inhibitor, single point] | –
O=C1Nc2ccccc2/C1=N/N=C/c1ccc(-c2ccc([N+](=O)[O-])cc2)o1 | inconclusive: 18.5 µM [inhibitor, single point] | –
Cc1ccc2[nH]c(=O)c(CNC(C)C)cc2c1 | inconclusive: 18.5 µM [inhibitor, single point] | –
O=C(NCCc1ccccc1)C1CCC(=O)N(CCCN2CCCC2=O)C1 (stereo not given) | inconclusive: 18.5 µM [inhibitor, single point] | –
O=C(Nc1ccc(Cl)cc1)C1c2cccc[n+]2CC(=O)N1Cc1ccc2c(c1)OCO2 (stereo not given) | inconclusive: 1.17 µM [inhibitor, partial curve, poor fit] | –
O=C(O)CCCCCn1c(SCC(=O)N2CCCC2)nc2ccsc2c1=O | inconclusive: 4.15 µM [inhibitor, partial curve] | –
Cc1ccc(SCCC(=O)N(C)C)cc1 | inactive | –
Cc1cccc(NC(=O)NCC(c2cccnc2)N2CCOCC2)c1 (stereo not given) | inconclusive: 10.4 µM [inhibitor, partial curve] | –
COCCn1c(=O)[nH]c(=O)c2cc(C(=O)c3cc(OC)ccc3O)cnc21 | inconclusive: 10.4 µM [inhibitor, partial curve, poor fit] | –
CCOC(=O)c1c(C)[nH]c2c1-c1ccccc1C(=O)C2=O | active: 1.47 µM | –
c1ccc(CCC2=NCCn3cccc32)cc1 | active: 14.7 µM | –
CCCCN(CCCNC(=O)CN1C(=O)COc2ccc(S(=O)(=O)N3CCC(C)CC3)cc21)Cc1ccccc1 | inconclusive: 11.7 µM [inhibitor, single point] | –
COc1ccc(CCNC(=O)CSc2nc3ccccc3o2)cc1OC | inactive | –

One compound at a time, from the list above. Order of values: Potency	activity change, negative = inhibition
`CCc1ccc(NC(=O)CSc2nc3nc(C)cc(C)n3n2)cc1` in the list: inconclusive: 18.5 µM [inhibitor, single point]	–
`COCCn1c(=O)[nH]c(=O)c2cc(C(=O)c3cc(OC)ccc3O)cnc21` in the list: inconclusive: 10.4 µM [inhibitor, partial curve, poor fit]	–
`Cc1ccc2[nH]c(=O)c(CNC(C)C)cc2c1` in the list: inconclusive: 18.5 µM [inhibitor, single point]	–
`C=CCNc1nc(Nc2ccc([N+](=O)[O-])cc2)nc(N2CCCC2)n1` in the list: inconclusive: 18.5 µM [inhibitor, single point]	–

Following part:

SMILES | Potency | activity change, negative = inhibition
Clc1ccc(Cc2nnc(-c3ccccc3Br)o2)cc1 | inactive | –
CC(Sc1n[nH]c(-c2cccs2)n1)C(=O)Nc1ccccc1F (stereo not given) | inconclusive: 20.8 µM [inhibitor, partial curve, poor fit] | –
COC(=O)C1CCN(C(c2cc(OC)c(OC)c(OC)c2)c2sc3nc(C)nn3c2O)CC1 (stereo not given) | inconclusive: 18.5 µM [inhibitor, single point] | –
CN(C)CCCn1c(SCC(=O)Nc2nc(-c3cccc(Br)c3)cs2)nc2ccccc2c1=O | inconclusive: 4.15 µM [inhibitor, full curve, poor fit] | –
CCOC(=O)C1CCN(C(=O)CCc2c(C)nc3ncnn3c2C)CC1 | active: 14.7 µM | –
CC(=O)Nc1cccc(NC(=O)c2cccc(S(=O)(=O)N3CCN(Cc4ccccc4)CC3)c2)c1 | active: 10.4 µM | –
CCn1c(=O)c(C(=O)CN2CCN(S(=O)(=O)c3cc(C)ccc3C)CC2)c(N)n(Cc2ccccc2)c1=O | active: 13.1 µM | –
N#Cc1c(-c2ccccc2)nc(SCC(=O)Nc2nnc(C(F)(F)F)s2)[nH]c1=O | inactive | –
Cc1ccc(CN2CCN(Cc3ccccc3F)CC2)cc1 | – | inactive: 55.9% [at 5.75 µM]
O=C(NC1CCCN(Cc2ccc(Cl)cc2)C1)C1CCC1 (stereo not given) | inconclusive: 11.7 µM [inhibitor, single point] | –
O=C1OC(/C=C/c2ccc(Cl)cc2)=NC/1=C/c1ccco1 | inconclusive: 10.4 µM [inhibitor, single point] | –
C/C(=N\NC(=O)c1nn(C)c(C)c1Br)c1ccc(NC(=O)c2ccc(C)s2)cc1 | inactive | –
CCOC(=O)Cn1nnnc1CN(Cc1ccc(OC)cc1)Cc1cc2cc(C)ccc2[nH]c1=O | inactive | –
O=C(Cn1c(=O)n(Cc2ccco2)c(=O)c2c3c(sc21)CCCCC3)c1ccccc1 | inactive | –
Cc1nn(Cc2ccc(Cl)cc2Cl)c(C)c1NC(=O)c1nn(C)cc1Cl | inconclusive: 11.7 µM [inhibitor, single point] | –
Cc1nn(-c2ccc(C(=O)NCC(c3ccco3)N3CCCC3)cc2)c(C)c1Cl (stereo not given) | active: 0.828 µM | –
O=C(NCCO)C(O)C(O)C(=O)NCCO (stereo not given) | inactive | –
O=C(O)CC12CC3CC(C1)CC(n1ncc(NCc4ccc(F)cc4)c(Cl)c1=O)(C3)C2 | inconclusive: 3.7 µM [inhibitor, partial curve, poor fit] | –
CCOC(=O)N1CC=C2C(C#N)=C(N)C(C#N)(C#N)[C@H](c3ccc(OC(C)C)c(OCC)c3)[C@H]2C1 | inactive | –
CC(=O)NCC(=O)OCC(=O)c1ccc(C)cc1 | inconclusive: 8.28 µM [inhibitor, partial curve, poor fit] | –
COC(=O)c1cc(NC(=O)C2(S(=O)(=O)c3ccc(C)cc3)CC2)cc(C(=O)OC)c1 | inconclusive: 10.4 µM [inhibitor, partial curve, poor fit] | –
Cc1cc(O)c(C(C)C)cc1NC(=O)c1ccc(Cl)cc1 | inconclusive: 18.5 µM [inhibitor, single point] | –
CCN(CC)S(=O)(=O)c1ccc(C(=O)N(c2ccc(C)cc2)C2C=CS(=O)(=O)C2)cc1 (stereo not given) | inconclusive: 7.38 µM [inhibitor, partial curve, poor fit] | –
COc1ccc(-c2cc(=O)c3c(O)cc(O[C@H]4OC(COC5OC(C)C(O)C(O)[C@H]5O)C(O)C(O)C4O)cc3o2)cc1O (stereo not given in full) | inconclusive: 0.849 µM [inhibitor, partial curve, poor fit] | –

SMILES | Potency | activity change, negative = inhibition
COc1ccc(Br)c(OC)c1C(=O)NC(=O)Nc1nc(C)cc(C)n1 | inactive | –
O=C(NCc1ccc(F)cc1)C1CCCN1C(=O)Nc1ccccc1 (stereo not given) | inconclusive: 0.586 µM [inhibitor, full curve, poor fit] | –
CC(C)(C)NC(=O)COC(=O)c1nsc(Cl)c1Cl | inconclusive: 13.1 µM [inhibitor, partial curve] | –
Cc1cc(/C=C2\SC(N)=NC2=O)c(C)n1-c1ccccc1 | inactive | –
COc1ccc(-c2cn3c(C)c(C(=O)N4CCN(c5ccc(F)cc5)CC4)sc3n2)cc1 | inactive | –
COc1ccc(N(CC(=O)NCCSCc2cccc(Cl)c2)S(C)(=O)=O)cc1Cl | inconclusive: 0.0026 µM [inhibitor, full curve, poor fit] | –
CC(C)=CC(=O)OCC(=O)Nc1cc([N+](=O)[O-])ccc1F | inactive | –
COc1ccc2c(c1OC)C(=O)OC2 | inactive | –
O=[N+]([O-])c1ccc(Nc2cccc(F)c2)nc1 | inactive | –
COc1ccc(CNC(=O)C(C)n2nc(C)n3c(cc4occc43)c2=O)cc1 (stereo not given) | inconclusive: 18.5 µM [inhibitor, partial curve, poor fit] | –
CCc1cc2c(NC(Cc3ccccc3)C(=O)O)ncnc2s1 (stereo not given) | inconclusive: 7.38 µM [inhibitor, partial curve, poor fit] | –
Cc1nnsc1C(=O)Nc1ccc(Cl)cc1 | inactive | –
O=C(c1ccc(S(=O)(=O)Nc2ccc(F)cc2)cc1)N1CCN(c2ccccn2)CC1 | inconclusive: 18.5 µM [inhibitor, single point] | –
CC1=C(C(=O)OCc2ccccc2)C(c2ccoc2)C(C#N)=C(N)O1 (stereo not given) | inconclusive: 18.5 µM [inhibitor, single point] | –
NS(=O)(=O)c1ccc(CCNS(=O)(=O)c2cccc3cccnc23)cc1 | active: 1.17 µM | –
COc1ccc2cc(S(=O)(=O)n3cnc(C)c3)ccc2c1 | inconclusive: 14.7 µM [inhibitor, partial curve] | –
O=C(CSc1nc2ccccc2o1)Nc1ccc(N2CCOCC2)cc1 | inactive | –
NC(=O)c1ccccc1NC(=O)CSC1=NCCS1 | inconclusive: 1.17 µM [inhibitor, partial curve, poor fit] | –
CC1(C)CC(=O)C2=C(C1)Nc1ccccc1N(C(=O)C1CC1)C2c1ccco1 (stereo not given) | inactive | –
O=C(Nc1nc(-c2cccs2)cs1)c1ccc(S(=O)(=O)N2CCCC2)cc1 | inactive | –
CN(C)C1=NC[C@H](Cc2ccccc2)N1CCc1cccc(F)c1 | inconclusive: 18.5 µM [inhibitor, single point] | –
Cc1sc2ncnc(NCC3COc4ccccc4O3)c2c1C (stereo not given) | inconclusive: 13.1 µM [inhibitor, single point] | –

A few values from the results shown:
`O=C(Nc1ccc(Cl)cc1)C1c2cccc[n+]2CC(=O)N1Cc1ccc2c(c1)OCO2` (stereo not given) – Potency: inconclusive: 1.17 µM [inhibitor, partial curve, poor fit]
`COc1ccc(N(CC(=O)NCCSCc2cccc(Cl)c2)S(C)(=O)=O)cc1Cl` – Potency: inconclusive: 0.0026 µM [inhibitor, full curve, poor fit]
